This data set is described as follows: general procedure: Boc solid-phase peptide synthesis; chloromethylated divinylbenzene-styrene copolymer (Bio-Rad Merrifield resin), 2% cross linking, Boc-Pro esterified, 0.47. Conditions: whole synthesis, overall, scale of the general procedure 4.6 g resin.

The text below walks through data of US4034082A (Abbott Laboratories, priority 1976, dated 1977).

Strings that start with PEPTIDE1 are HELM notation: dots part the residues, brackets hold end groups and non-standard residues.

The substance “PEPTIDE1{[pGlu].H.W.S.Y.[dW].L.R.P.[NHEt]}$$$$V2.0” came in with an isolated yield of 25%.
